# Assay results taken from patent US20250161441A1, “MEDICINE COMPRISING COMBINATION OF ANTI-MUTANT-CALR ANTIBODY AND ANOTHER DRUG” (JUNTENDO EDUCATIONAL FOUNDATION, priority 2022, published 2025).
# No constants are given. Whether binding was seen depends on the method and setting. Some entries that bind do so weakly or less than the wild type.
# Columns and labels:
# Assay in all cases: Western blot of culture supernatant of UT-7/TPO cells expressing FLAG-tagged mutant CALR
# [1] = biological target: full-length Ins 5 type mutant CALR protein having a FLAG-tag inserted downstream of the signal sequence at the N-terminus (UniProt P27797)
# [2] = biological target: cleaved Ins 5 type mutant CALR protein (FLAG-tagged, from culture supernatant) (UniProt P27797)
# [3] = biological target: cleaved Del 52 type mutant CALR protein (FLAG-tagged, from culture supernatant) (UniProt P27797)
binding [1],binding [2],binding [3],Binder
binds,binds,binds,"clone B3 antibody (antibody, V domains shown) VH: QVQLQQSGAELVKPGSSVKISCKASGYTFTRNFIHWIKQQPGNGLEWIGWIFPGDGDTEYNQKFNGKATLTADKSSSTAYMQLSSLTSEDSAVYFCARGNYNYEYFDYWGQGVMVTVSS VL: DIQMTQSPASLSASLGETVSIECLASEDIYSYLAWYQQKPGKSPQLLIFAANRLQDGVPSRFSGSGSGTQFSLKISGMQPEDEGDYFCLQGSKFPYTFGPGTKLELN"
binds,binds,binds,"clone C6 antibody (antibody, V domains shown) VH: QVQLQQSGAELVKPGSSVKISCKASGYTFTSYFVHWIKQQPGDGLEWIGWIYPGDGDTEYNHKFNGKSTLTADRSSSTAYMQLSSLTSEDSAVYFCARGNYYDGREVMDAWGQGASVTVSS VL: DVVLTQTPPTLSATIGQSVSISCRSSQSLLDSDGETYLNWLLQRPGQSPQLLIYSVSNLESGVPNRFSGSGSETDFTLKISGMEAEDLGVYYCMQATHGPYTFGAGTKLELK"
binds,binds,binds,"clone G1 antibody (antibody, V domains shown) VH: QVQLQQSGAELVKPGSSVKISCKASGYTFTSYFVHWIKQQPGDGLEWIGWIYPGDGDTEYNQKFNGKATLTADRSSSTAYMQLSSLTSEDSAVYFCARGNYYDGREVMDAWGQGASVTVSS VL: DVVLTQTPPTLSATIGQSVSISCRSSQSLLDSDGETYLNWLLQRPGQCPQLLIYSVSNLESGVPNRFSGSGSETDFTLKISGVEAEDLGVYYCMQGTHGPYTFGAGTKLELK"
